{"source": "PubChem BioAssay AID504808 (Drosophila RNAi Screening Center, 2011)", "test": "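Genes whose loss lifts activity of an E2F-responsive reporter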 (primary screen)", "system": "Drosophila S2 cells", "knock-down reagent": "long dsRNA against Drosophila genes", "detection": "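Firefly luciferase driven by E2F sites, normalised to Renilla luciferase on the same minimal promoter, measured by plate reader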", "reading the numbers": "E2F firefly: higher = more E2F reporter activity; Renilla normaliser: higher = more normaliser reporter signal", "active means": "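a knock-down counted as active when the firefly/Renilla E2F signal rose above 50%, a threshold chosen arbitrarily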", "note": "In all, the deposit lists about 21,000 reagents; this is an unselected part of those that have a named target and a result. Over the whole deposit, 18 (0.084%) got an active call. 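Raw counts without plate normalisation, one of two replicates; the ratio scores behind the calls were not deposited.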 Reagents against one gene are numbered here. Reagent sequences are not shown. Not given: the amount of reagent, the time to read-out."}
{"target gene": "bru3", "dsRNA no.": 1, "E2F firefly, rep 1": 1.34e5, "Renilla normaliser, rep 1": 4097, "call": "inactive"}
{"target gene": "bru3", "dsRNA no.": 2, "E2F firefly, rep 1": 76935, "Renilla normaliser, rep 1": 3627, "call": "inactive"}
{"target gene": "bru3", "dsRNA no.": 3, "E2F firefly, rep 1": 1.33e5, "Renilla normaliser, rep 1": 7119, "call": "inactive"}
{"target gene": "Idgf2", "dsRNA no.": 1, "E2F firefly, rep 1": 81122, "Renilla normaliser, rep 1": 4027, "call": "inactive"}
{"target gene": "RN-tre", "dsRNA no.": 1, "E2F firefly, rep 1": 98842, "Renilla normaliser, rep 1": 4348, "call": "inactive"}
{"target gene": "repo", "dsRNA no.": 1, "E2F firefly, rep 1": 1.44e5, "Renilla normaliser, rep 1": 6310, "call": "inactive"}
{"target gene": "CG12926", "dsRNA no.": 1, "E2F firefly, rep 1": 1.54e5, "Renilla normaliser, rep 1": 5097, "call": "inactive"}
{"target gene": "Taf2", "dsRNA no.": 1, "E2F firefly, rep 1": 70481, "Renilla normaliser, rep 1": 3277, "call": "inactive"}
{"target gene": "comm3", "dsRNA no.": 1, "E2F firefly, rep 1": 1.72e5, "Renilla normaliser, rep 1": 6443, "call": "inactive"}
{"target gene": "comm3", "dsRNA no.": 2, "E2F firefly, rep 1": 1.47e5, "Renilla normaliser, rep 1": 7326, "call": "inactive"}
{"target gene": "comm3", "dsRNA no.": 3, "E2F firefly, rep 1": 1.84e5, "Renilla normaliser, rep 1": 8502, "call": "inactive"}
{"target gene": "Drip", "dsRNA no.": 1, "E2F firefly, rep 1": 94355, "Renilla normaliser, rep 1": 4811, "call": "inactive"}
{"target gene": "Drs", "dsRNA no.": 1, "E2F firefly, rep 1": 1.02e5, "Renilla normaliser, rep 1": 4267, "call": "inactive"}
{"target gene": "CG30485", "dsRNA no.": 1, "E2F firefly, rep 1": 1.00e5, "Renilla normaliser, rep 1": 4309, "call": "inactive"}
{"target gene": "Mybbp1A", "dsRNA no.": 1, "E2F firefly, rep 1": 1744, "Renilla normaliser, rep 1": 896, "call": "inactive"}
{"target gene": "dj-1beta", "dsRNA no.": 1, "E2F firefly, rep 1": 1.25e5, "Renilla normaliser, rep 1": 6439, "call": "inactive"}
{"target gene": "CG10352", "dsRNA no.": 1, "E2F firefly, rep 1": 1.23e5, "Renilla normaliser, rep 1": 5968, "call": "inactive"}
{"target gene": "CG4582", "dsRNA no.": 1, "E2F firefly, rep 1": 1.09e5, "Renilla normaliser, rep 1": 5485, "call": "inactive"}
{"target gene": "CG3164", "dsRNA no.": 1, "E2F firefly, rep 1": 1.50e5, "Renilla normaliser, rep 1": 5530, "call": "inactive"}
{"target gene": "CG4074", "dsRNA no.": 1, "E2F firefly, rep 1": 1.49e5, "Renilla normaliser, rep 1": 6115, "call": "inactive"}
{"target gene": "Adgf-D", "dsRNA no.": 1, "E2F firefly, rep 1": 1.12e5, "Renilla normaliser, rep 1": 5935, "call": "inactive"}
{"target gene": "CG13078", "dsRNA no.": 1, "E2F firefly, rep 1": 1.03e5, "Renilla normaliser, rep 1": 4501, "call": "inactive"}
{"target gene": "Sf3b6", "dsRNA no.": 1, "E2F firefly, rep 1": 85021, "Renilla normaliser, rep 1": 3946, "call": "inactive"}
{"target gene": "Xpc", "dsRNA no.": 1, "E2F firefly, rep 1": 75027, "Renilla normaliser, rep 1": 3285, "call": "inactive"}
{"target gene": "CG13046", "dsRNA no.": 1, "E2F firefly, rep 1": 1.73e5, "Renilla normaliser, rep 1": 8834, "call": "inactive"}
{"target gene": "CG11373", "dsRNA no.": 1, "E2F firefly, rep 1": 1.41e5, "Renilla normaliser, rep 1": 7653, "call": "inactive"}
{"target gene": "indra", "dsRNA no.": 1, "E2F firefly, rep 1": 89367, "Renilla normaliser, rep 1": 4574, "call": "inactive"}
{"target gene": "mRpL32", "dsRNA no.": 1, "E2F firefly, rep 1": 1.16e5, "Renilla normaliser, rep 1": 5390, "call": "inactive"}

Just “Renilla normaliser, rep 1”, for 4 of the entries above:
CG4074: 6115
Adgf-D: 5935
CG13078: 4501
Sf3b6: 3946
